{"source": "patent US6020305A", "about": "“Treatment of stress-induced skin disease by corticotropin releasing hormone antagonists and skin mast cell degranulation inhibitors” (Kos Pharmaceuticals, Inc., priority 1996, dated 2000)", "system": "skin mast cells", "test": "Effect of drug pretreatment on dye extravasation induced by CRH", "type": "in vivo, rat", "conditions": "drug 10^-4 M", "description": "1. For extravasation experiments, male Sprague/Dawley rats, each weighing approximately 350 g (Taconic Farms, Germantown, N.Y.), were anesthetized with a single intraperitoneal injection of 0.5 ml ketamine and 0.5 ml xylazine (20 mg/ml each) and then injected intravenously with 0.1 ml of 1% Evan's blue 60 min prior to treatment.\n3. The pretreatment solution, when appropriate, was drawn first in the syringe followed by CRH from which it was separated by an air bubble. The pretreatment solution was injected first and was allowed to remain in the skin for 1 min; the needle was then changed, the air bubble ejected and CRH was injected and allowed to stay in the skin for 5 min. The animal was then killed by asphyxiation over CO2 vapor and decapitated; the skin was removed, turned over and photographed."}
{"smiles": "CN(C)CCOC(c1ccccc1)c1ccccc1", "note": "[Diphenhydramine, diphenhydramine]", "values": [{"measurement": "plasma extravasation by CRH after pretreatment", "setting": "higher concentrations (>10^-6 M) of CRH", "result": "only partially inhibited"}, {"measurement": "plasma extravasation by CRH after pretreatment", "setting": "lower concentrations (<10^-8 M) of CRH", "result": "suppressed"}]}
